# Experimental data published in the supplement of paper PMC8166895.
# Several values for one entry are separate records, joined by “and”; a condition that tells them apart may be missing. Equal entries are not always repeated. Structures can show the parent of a compound that is named as a salt. This is one part of the list. Most values lie at the level of the controls, where differences are scatter.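 Differential scanning fluorimetry gave melting temperatures in a one-replicate pilot screen of a library of approved drugs plus clinical or known-target compounds. Hits increasing melting point at least 2 °C were the strongest stabilizers, while negative shifts signify destabilization.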
# Test system: SARS-CoV-2 main protease (Mpro, nsp5)
# Experiment: thermal shift ΔTm of Mpro relative to plate average Tm; higher = stronger thermal stabilization of Mpro (binding)
# Conditions: 10 µM; protein concentration 1 µM
row,SMILES,thermal shift ΔTm of Mpro
1,CC[C@H]1OC(=O)[C@H](C)[C@@H](O[C@H]2C[C@@](C)(OC)[C@@H](O)[C@H](C)O2)[C@H](C)[C@@H](O[C@@H]2O[C@H](C)C[C@H](N(C)C)[C@H]2O)[C@](C)(O)C[C@@H](C)C(=O)[C@H](C)[C@H]2OC(=O)O[C@@]21C [Erythromycin Cyclocarbonate],0.0467 °C
2,Cc1c(OCC(F)(F)F)ccnc1C[S@@+]([O-])c1nc2ccccc2[nH]1 [Dexlansoprazole],-0.205 °C
3,COc1ccc2c(c1)Nc1ccccc1S2 [2-Methoxyphenothiazine],0.0203 °C
4,O=C(OCC(O)CO)c1ccccc1Nc1ccnc2cc(Cl)ccc12 (stereo unspecified) [Glafenine Hydrochloride],-0.177 °C
5,O=C(OCC(O)CO)c1ccccc1Nc1ccnc2cc(Cl)ccc12 (stereo unspecified) [Glafenine],0.0874 °C
6,CC(C(=O)O)c1ccc(-c2ccccc2)c(F)c1 (stereo unspecified) [Flurbiprofen],0.0698 °C and -0.124 °C
7,NC(=O)c1cn(Cc2c(F)cccc2F)nn1 [Rufinamide],0.222 °C
8,Cc1cc(O)c2c(c1)C(=O)c1cccc(O)c1C2=O [Chrysophanic Acid],-0.0142 °C
9,CN(C)CCN1C(=O)c2cccc3cc(NC(N)=O)cc(c23)C1=O,0.0149 °C
10,C[C@H]1O[C@@H](O[C@H]2[C@@H](O)C[C@H](O[C@H]3[C@@H](O)C[C@H](O[C@H]4CC[C@@]5(C)[C@H](CC[C@@H]6[C@@H]5C[C@@H](O)[C@]5(C)[C@@H](C7=CC(=O)OC7)CC[C@]65O)C4)O[C@@H]3C)O[C@@H]2C)C[C@H](O)[C@@H]1O [Digoxin],-0.0445 °C
11,NS(=O)(=O)c1cc2c(cc1Cl)NC(C(Cl)Cl)NS2(=O)=O (stereo unspecified) [Trichlormethiazide],0.0572 °C
12,CN[C@@H]1[C@H](O)[C@H](NC)[C@H]2O[C@@]3(O)C(=O)C[C@@H](C)O[C@H]3O[C@@H]2[C@H]1O [Spectinomycin HCl],-0.00329 °C
13,NC(=O)c1cnc(N[C@@H]2CCCC[C@@H]2N)nc1Nc1cccc(-n2nccn2)c1,-0.0938 °C and 0.168 °C
14,CC[C@@](C)(Nc1ccnc(-c2c[nH]c3ncccc23)n1)C(=O)NCC(F)(F)F [Decernotinib],0.131 °C
15,Cc1onc(-c2ccccc2Cl)c1C(=O)N[C@@H]1C(=O)N2[C@@H]1SC(C)(C)[C@@H]2C(=O)O [Cloxacillin Sodium],0.0358 °C
16,COc1ccc(Cn2ccc3ccc(C(=O)NO)cc32)cc1,0.0141 °C
17,C#Cc1cccc(Nc2ncnc3cc(OCCOC)c(OCCOC)cc23)c1 [Erlotinib HCl (OSI-744)],-0.102 °C
18,C#Cc1cccc(Nc2ncnc3cc(OCCOC)c(OCCOC)cc23)c1 [Erlotinib],0.0286 °C
19,COC(=O)C1=CO[C@@H](O[C@@H]2O[C@H](CO)[C@@H](O)[C@H](O)[C@H]2O)[C@@H]2C(CO)=CC[C@H]12 [Geniposide],0.00479 °C
20,CCN(CC)CCOC(=O)c1ccc(N)cc1Cl [Chloroprocaine HCl],-0.0867 °C
21,NC(=O)c1cccc(-c2cc(Nc3ccc(OC(F)(F)F)cc3)ncn2)c1,1.08 °C
22,Cc1cc(C)c(CNC(=O)c2cc(-c3ccc(CN4CCOCC4)cc3)cc3c2cnn3C2CCCC2)c(=O)[nH]1,-0.0859 °C
23,CC(=O)N[C@@H]1C[C@H](NC(C)(C)C)CC[C@@H]1N1CC[C@H](Nc2ncnc3cc(C(C)(C)C)nn23)C1=O,0.0588 °C

row,SMILES,thermal shift ΔTm of Mpro
1,NC(=O)CN1CC(O)CC1=O (stereo unspecified) [Oxiracetam],0.127 °C
2,C[C@H](N=C(NC#N)Nc1cccc2ncccc12)c1ccccc1,-0.0285 °C
3,CC/C(=C(\c1ccc(O)cc1)c1ccc(OCCN(C)C)cc1)c1ccccc1 [4-Hydroxytamoxifen],-0.192 °C
4,CCN(CC)CCNc1ccc(C)c2sc3ccccc3c(=O)c12 [Lucanthone],-0.0719 °C
5,CC1(C)O[C@H]2CC(=O)OC[C@]23[C@H]2CC[C@@]4(C)[C@H](c5ccoc5)OC(=O)[C@H]5O[C@]54[C@]2(C)C(=O)C[C@@H]13 [Limonin],-0.123 °C
6,Cc1c(-c2ccccc2)oc2c(C(=O)OCCN3CCCCC3)cccc2c1=O [Flavoxate HCl],0.0574 °C
7,CCCCCCOC(=O)NC(=N)c1ccc(NCc2nc3cc(C(=O)N(CCC(=O)OCC)c4ccccn4)ccc3n2C)cc1 [Dabigatran Etexilate],-0.0516 °C
8,O=C(OC1C[C@@H]2CC3C[C@H](C1)N2CC3=O)c1c[nH]c2ccccc12 (stereo partly specified) [Dalasetron Mesylate Hydrate],0.0546 °C
9,Cc1ccc(-c2nn(C(C)(C)C)c3ncnc(N)c23)cc1,0.0188 °C
10,NS(=O)(=O)c1ccc(NC2=CC(=O)c3ccccc3C2=O)cc1,-0.0851 °C
11,CC(=O)NC(Cc1ccccc1)C(=O)O (stereo unspecified) [Afalanine],0.318 °C
12,CC(C)C[C@@H](C(=O)N[C@H](C(=O)OC1CCCC1)c1ccccc1)[C@H](O)C(=O)NO [Tosedostat],-0.0141 °C
13,COc1ccc(O)cc1 [Mequinol],-0.394 °C
14,CCN(CC)CCNC(=O)c1cc(Cl)c(N)cc1OC [MetoclopraMide HCl],-0.0255 °C
15,CCOc1ccc2ccccc2c1C(=O)N[C@@H]1C(=O)N2[C@@H]1SC(C)(C)[C@@H]2C(=O)O [Nafcillin Sodium],-0.0582 °C
16,C[CH2][Hg][S]c1ccccc1C(=O)[O-].[Na+] [Thimerosal],-3.12 °C
17,N#C/C(=C\c1cn(-c2ccccc2)c2ccccc12)C(=O)O,0.236 °C
18,CC1=NN(c2ccccc2)C(=O)C1 [Edaravone],0.269 °C
19,O=C(O)CCNC(=O)c1ccccc1 [Betamipron],0.0173 °C
20,O=C(N[C@H](CO)[C@H](O)c1ccc([N+](=O)[O-])cc1)C(Cl)Cl [Chloramphenicol],-0.00128 °C
21,CCC[C@@H]1C[C@@H](C(=O)N[C@@H]([C@H]2O[C@H](SC)[C@H](O)[C@@H](O)[C@H]2O)[C@H](C)Cl)N(C)C1 [Clindamycin HCl],-0.00193 °C
22,CCC[C@@H]1C[C@@H](C(=O)N[C@@H]([C@H]2O[C@H](SC)[C@H](O)[C@@H](O)[C@H]2O)[C@H](C)Cl)N(C)C1 [Clindamycin],-0.19 °C
23,CO[C@H]1/C=C\C=C(/C)C(=O)NC2=CC(=O)C(NCCN(C)C)=C(C[C@@H](C)C[C@H](OC)[C@H](O)[C@@H](C)/C=C(\C)[C@@H]1OC(N)=O)C2=O [17-DMAG (Alvespimycin) HCl],-0.11 °C

# A portion of the results above:
row,SMILES,thermal shift ΔTm of Mpro
12,CN[C@@H]1[C@H](O)[C@H](NC)[C@H]2O[C@@]3(O)C(=O)C[C@@H](C)O[C@H]3O[C@@H]2[C@H]1O [Spectinomycin HCl],-0.00329 °C
13,NC(=O)c1cnc(N[C@@H]2CCCC[C@@H]2N)nc1Nc1cccc(-n2nccn2)c1,-0.0938 °C and 0.168 °C
14,CC[C@@](C)(Nc1ccnc(-c2c[nH]c3ncccc23)n1)C(=O)NCC(F)(F)F [Decernotinib],0.131 °C
15,Cc1onc(-c2ccccc2Cl)c1C(=O)N[C@@H]1C(=O)N2[C@@H]1SC(C)(C)[C@@H]2C(=O)O [Cloxacillin Sodium],0.0358 °C
16,COc1ccc(Cn2ccc3ccc(C(=O)NO)cc32)cc1,0.0141 °C
17,C#Cc1cccc(Nc2ncnc3cc(OCCOC)c(OCCOC)cc23)c1 [Erlotinib HCl (OSI-744)],-0.102 °C
18,C#Cc1cccc(Nc2ncnc3cc(OCCOC)c(OCCOC)cc23)c1 [Erlotinib],0.0286 °C
19,COC(=O)C1=CO[C@@H](O[C@@H]2O[C@H](CO)[C@@H](O)[C@H](O)[C@H]2O)[C@@H]2C(CO)=CC[C@H]12 [Geniposide],0.00479 °C
20,CCN(CC)CCOC(=O)c1ccc(N)cc1Cl [Chloroprocaine HCl],-0.0867 °C
